Values of other authors in patent publication US20020061838A1, “Peptide pharmaceutical formulations” (priority 2000, published 2002).
Some results were stated once for a whole list of compounds, not compound by compound.

Details: physiological pH (about pH 7.4); cited from earlier work

CC[C@H](C)[C@H](NC(=O)[C@H](C)NC(=O)[C@H](CC(=O)O)NC(=O)[C@H](C)NC(=O)[C@@H](N)Cc1ccc(O)cc1)C(=O)N[C@@H](Cc1ccccc1)C(=O)N[C@H](C(=O)N[C@@H](CC(N)=O)C(=O)N[C@@H](CO)C(=O)N[C@@H](Cc1ccc(O)cc1)C(=O)N[C@@H](CCCNC(=N)N)C(=O)N[C@@H](CCCCN)C(=O)N[C@H](C(=O)N[C@@H](CC(C)C)C(=O)NCC(=O)N[C@@H](CCC(N)=O)C(=O)N[C@@H](CC(C)C)C(=O)N[C@@H](CO)C(=O)N[C@@H](C)C(=O)N[C@@H](CCCNC(=N)N)C(=O)N[C@@H](CCCCN)C(=O)N[C@@H](CC(C)C)C(=O)N[C@@H](CC(C)C)C(=O)N[C@@H](CCC(N)=O)C(=O)N[C@@H](CC(=O)O)C(=O)N[C@H](C(=O)N[C@@H](CCSC)C(=O)N[C@@H](CO)C(=O)N[C@@H](CCCNC(=N)N)C(=O)N[C@@H](CCC(N)=O)C(=O)N[C@@H](CCC(N)=O)C(=O)NCC(=O)N[C@@H](CCC(=O)O)C(=O)N[C@@H](CO)C(=O)N[C@@H](CC(N)=O)C(=O)N[C@@H](CCC(N)=O)C(=O)N[C@@H](CCC(=O)O)C(=O)N[C@@H](CCCNC(=N)N)C(=O)NCC(=O)N[C@@H](C)C(=O)N[C@@H](CCCNC(=N)N)C(=O)N[C@@H](C)C(=O)N[C@@H](CCCNC(=N)N)C(=O)N[C@@H](CC(C)C)C(N)=O)[C@@H](C)CC)C(C)C)[C@@H](C)O [GRF, GRF(1-44)amide]
solubility at physiological pH: up to 4 mg/mL
